Assay results taken from PubChem BioAssay AID2417 (National Center for Advancing Translational Sciences (NCATS), 2010).
Out of some 140,000 compounds screened, about 4,300 (3.1%) were called active. Inconclusive means that the source gave no clear call. Such entries were picked first, then a sample of the others.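 Rule for the calls: active = readout at or below -70, meaning at least 70% loss of cells showing the perinucleolar compartment, a nuclear body marking cancer cells; inconclusive = readout between -30 and a set limit; inactive = the rest.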

assay: High Content Assay for Compounds that inhibit the Assembly of the Perinucleolar Compartment; conditions: PC3M PTB-GFP, PNC prevalence imaging, 16 h; at 10 µM; stronger effect = lower value;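 note: plate controls were DMSO wells for no effect and camptothecin positive control wells for full effect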
Procedure, shortened: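 PC3M cells stably expressing PTB-GFP, 750–1000 cells/well, treated 16 h at 37 °C with compound (23 nl of library stock), in duplicate. After paraformaldehyde fixation and Hoechst stain, imaged at 20x; PNC prevalence scored by image analysis.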

Row | SMILES | activity change (PNC), negative = inhibition
1 | O=C(Nc1cccc(O)c1)c1noc2c1CCCCC2 | inconclusive: -38.2%
2 | Cc1cc(N2CCN(c3ccccn3)CC2)n2cc(-c3ccccc3)nc2n1 | inconclusive: -43.4%
3 | COc1cccc(NC(=O)CSc2nncn2N)c1 | inactive: -0.892%
4 | CCOC(=O)Cc1csc(NC(=O)CSc2cc(Cl)ccc2Cl)n1 | inconclusive: -52.1%
5 | COc1cccc(-n2nnc3c(=O)n(CC(=O)N4CCCc5ccccc54)cnc32)c1 | inactive: 7.61%
6 | O=C(NCCc1ccncc1)Nc1ccccc1Cl | inconclusive: -60.4%
7 | CCOC(=O)N1CCC(=NNC(=O)COc2ccc(OC)cc2)CC1 | inactive: 13.5%
8 | CCN(C(=O)c1cn(C)c(=O)c2cc(OC)c(OC)cc12)c1cc(C)ccc1C | inconclusive: -39.8%
9 | O=C(COC(=O)/C=C/c1ccco1)Nc1ncc(C(F)(F)F)cc1Cl | inconclusive: -42.4%
10 | C=CCn1c(SCc2c(C)noc2C)nnc1C1COc2ccccc2O1 (stereo not drawn) | inconclusive: -37.7%
11 | CCN(CC)S(=O)(=O)c1cccc(C(=O)NC(C(=O)NC2=NCCS2)C(C)C)c1 (stereo not drawn) | active: -116%
12 | CCC1(C)Cc2c(sc(NC(=O)CCC(=O)O)c2C#N)CO1 (stereo not drawn) | inconclusive: -55.3%
13 | Cc1ccc(S(=O)(=O)N2CCOCC2)cc1C(=O)NC1CCCCC1 | inconclusive: -42.1%
14 | CCOc1ccccc1C(=O)Nc1ccc(S(=O)(=O)N2CCOCC2)cc1 | inconclusive: -35.7%
15 | O=C(COc1ccccc1-c1ccccc1)NCc1cccc(Cl)c1 | inconclusive: -37.5%
16 | Cn1c(=O)cc(SCC(=O)Nc2cccnc2)c2ccccc21 | inconclusive: -34.5%
17 | CCOC(=O)CCc1nc2ccccc2[nH]1 | inconclusive: -61%
18 | CC12CCC(C(=O)N(c3ccccn3)c3ccccn3)(OC1=O)C2(C)C (stereo not drawn) | inactive: -10.7%
19 | COc1ccccc1C(=O)O/N=C(\N)c1ccccc1Cl | inactive: -2.14%
20 | CC1(C)Cc2nc3n[nH]c(N)c3cc2CO1 | inconclusive: -70%
21 | CCC(Sc1nnc(C)s1)C(=O)Nc1nccs1 (stereo not drawn) | inactive: 12.3%
22 | COC(=O)CC1=C(C(=O)OC)C(c2cc(OC)c(OC)cc2OC)C(C#N)=C(N)O1 (stereo not drawn) | inconclusive: -42%
23 | CCC(=O)/C=C1\Sc2ccccc2N1CC | inconclusive: -56.8%
24 | Cc1ccc(NC(=O)c2sc3nc(N)c(C#N)cc3c2N)cc1 | inconclusive: -42.6%

Row | SMILES | activity change (PNC), negative = inhibition
25 | COc1ccc(C(=O)Nc2ccc(S(=O)(=O)NC(C)C)cc2)cc1 | active: -112%
26 | CN(Cc1ccccc1)C(=O)c1ccccc1NC(=O)c1ccccc1 | inconclusive: -31.8%
27 | O=C(NCCCn1ccnc1)c1ccco1 | inconclusive: -35.2%
28 | O=C(COc1ccccc1)N(Cc1ccco1)c1ccc(O)cc1 | inconclusive: -32.1%
29 | O=C(COC(=O)c1ccc(S(=O)(=O)N2CCc3ccccc3C2)cc1)NC(=O)NCc1ccco1 | inconclusive: -65%
30 | CCOC(=O)c1nc(-c2ccccc2)oc1N(C)C | inconclusive: -52.5%
31 | COc1ccccc1C1=Nn2c(nnc2C2CCCCC2)SC1 | inconclusive: -38.2%
32 | Cc1ccc(NC(=O)Nc2cccs2)cc1 | inconclusive: -31.4%
33 | C=CCSc1nc2c(c(=O)[nH]c(=O)n2C)n1CC | inconclusive: -41.6%
34 | Cc1cc(-c2n[nH]c(=S)n2/N=C/c2ccccc2[N+](=O)[O-])n[nH]1 | inactive: -16%
35 | CCC(=O)c1cc(F)c(N2CCN(C(=O)Cc3ccccc3)CC2)cc1C | inconclusive: -55.3%
36 | c1cncc(-c2nc3cc4ccccc4cc3[nH]2)c1 | inactive: -27.7%
37 | Cn1c(=O)c2c(nc(NC3CCCCC3)n2Cc2ccccc2)n(C)c1=O | inconclusive: -73.1%
38 | O=C1CC2C(CC(OC(=O)c3ccc(-c4ccccc4)cc3)C2CO)O1 (stereo not drawn) | inactive: -16.8%
39 | CCn1c(Cc2ccccc2)nnc1SCC(=O)Nc1cc(C)on1 | active: -107%
40 | COc1cccc(/C(C#N)=C/c2c(-c3ccc(Cl)cc3)nc3c(C)cccn23)c1 | active: -99.4%
41 | O=C(CSCc1ccc(Br)cc1)N1CCOCC1 | inconclusive: -37.4%
42 | NC(=O)CSc1nnc(-c2ccc(S(=O)(=O)N3CCCCC3)cc2)n1-c1ccccc1 | inconclusive: -67.1%
43 | C/C(=N/NC(=O)C1CCCCC1)c1ccc([N+](=O)[O-])cc1 | inconclusive: -31.8%
44 | CC(=O)C1=C(C)NC(SCC(=O)c2ccc(Cl)cc2)=C(C#N)C1CC(C)C (stereo not drawn) | inactive: 2.54%
45 | CCn1c(CCNC(=O)c2ccc(Cl)cc2Cl)n[nH]c1=S | inactive: -19.4%
46 | c1ccc(NCc2cccnc2)cc1 | inconclusive: -30.6%
47 | O=C(Nc1nnc(-c2ccc(F)cc2)s1)C1CCN(S(=O)(=O)c2ccc(Cl)cc2)CC1 | inactive: -6.88%
48 | CCOCC(=O)Nc1nnc(COc2ccc(Cl)cc2)s1 | inactive: -21.7%

Row | SMILES | activity change (PNC), negative = inhibition
49 | O=c1[nH]c2cc(Cl)ccc2n1-c1ccccc1 | inconclusive: -39.5%
50 | O=[N+]([O-])c1ccc(-c2cnc(SC(c3ccccc3)c3ccccc3)[nH]2)cc1 | inconclusive: -31.3%
51 | CCOC(=O)c1ccc(NC(=S)NNC(=O)C2(C)CC2(Cl)Cl)cc1 (stereo not drawn) | inactive: 104%
52 | O=C(Cc1cccs1)Nc1cccnc1 | inactive: 12.7%
53 | CCN1C(=O)CC(N2CCC(C(=O)OC)CC2)C1=O (stereo not drawn) | inconclusive: -52.1%
54 | CCOC(=O)N1CCN(C(=O)C2CCC(CNS(=O)(=O)c3ccc(Cl)cc3)CC2)CC1 (stereo not drawn) | inactive: -14.1%
55 | O=S(=O)(Nc1ccc2c(c1)OCCO2)c1ccc(F)cc1 | inactive: 0.742%
56 | O=C1CN(C(=O)CSc2nc3cc(Cl)ccc3c(=O)n2Cc2ccccc2)c2ccccc2N1 | inactive: -7.16%
57 | CC(=O)NCc1ccc2[nH]c(C)cc2c1 | inconclusive: -35.2%
58 | O=C(CSc1nc(-c2ccco2)cc(C(F)(F)F)n1)NC1CCCC1 | inconclusive: -60.6%
59 | COC(=O)CC1C(=O)NCCN1C(=O)CSc1nnc(Nc2ccc(OC)cc2)s1 (stereo not drawn) | inactive: 30.8%
60 | COc1cc(CN2CCC(C(=O)N3CCCC(C)C3)CC2)cc(OC)c1O (stereo not drawn) | inactive: 49.4%
61 | CC1CC(C)CN(c2ccc(C(=O)OCC(=O)NC3CCCc4ccccc43)cc2[N+](=O)[O-])C1 (stereo not drawn) | inactive: -22%
62 | COc1ccc(-n2nnc3c(=O)n(Cc4ccccc4C)cnc32)cc1 | inconclusive: -34.4%
63 | O=C(c1cc2c(=O)oc3ccccc3c2s1)N1CCOCC1 | inconclusive: -42.9%
64 | Cc1nc2nc(-c3cccnc3)nn2c(C)c1Cl | inconclusive: -78.9%
65 | Cc1cccc2[nH]c3c(N4CCC5(CC4)OCCO5)ncnc3c12 | inconclusive: -47.3%
66 | CNS(=O)(=O)c1ccc(Oc2ccc(S(=O)(=O)NC)cc2)cc1 | inconclusive: -37%
67 | O=C(CSc1nnc(Cn2nnc(-c3ccccc3)n2)n1-c1ccccc1)Nc1ccccc1 | inconclusive: -61.5%
68 | CC(C)(C)N(NC(=O)Nc1ccc(Cl)c(Cl)c1)C(=O)c1ccccc1 | inconclusive: -42.5%
69 | Cn1c(=O)n(C)c2cc(S(=O)(=O)N3CCCc4ccccc43)ccc21 | inconclusive: -31.5%
70 | CC1=CC(C)(C)N(S(=O)(=O)c2ccc(C)cc2)c2ccc(C)cc21 | active: -90.5%
71 | O=C(O)c1cc(-c2ccccc2Cl)n[nH]1 | inactive: 8.26%
72 | O=C(Cc1ccc(F)cc1)N(c1ccccc1)C1C=CS(=O)(=O)C1 (stereo not drawn) | inconclusive: -38.2%

A few values from above:
O=C(O)c1cc(-c2ccccc2Cl)n[nH]1 | activity change (PNC), negative = inhibition: inactive: 8.26%
O=C(c1cc2c(=O)oc3ccccc3c2s1)N1CCOCC1 | activity change (PNC), negative = inhibition: inconclusive: -42.9%
COC(=O)CC1C(=O)NCCN1C(=O)CSc1nnc(Nc2ccc(OC)cc2)s1 (stereo not drawn) | activity change (PNC), negative = inhibition: inactive: 30.8%
O=C(Cc1cccs1)Nc1cccnc1 | activity change (PNC), negative = inhibition: inactive: 12.7%
Cn1c(=O)n(C)c2cc(S(=O)(=O)N3CCCc4ccccc43)ccc21 | activity change (PNC), negative = inhibition: inconclusive: -31.5%
O=C(CSc1nc(-c2ccco2)cc(C(F)(F)F)n1)NC1CCCC1 | activity change (PNC), negative = inhibition: inconclusive: -60.6%

(next part)

Row | SMILES | activity change (PNC), negative = inhibition
73 | COc1ccc(NC(=O)c2sccc2SCc2cccc(C(F)(F)F)c2)cc1 | inactive: 16.9%
74 | COc1ccc(S(=O)(=O)N(C)Cc2cccs2)cc1Br | inconclusive: -60%
75 | O=C(O)c1cccc(Cn2c(Cl)c(/C=N/NC(=O)c3ccccc3Cl)sc2=O)c1 | inactive: -25.5%
76 | O=C(CN(Cc1ccc2c(c1)OCO2)C(=O)CNC(=O)c1ccco1)NC1CCCCC1 | inactive: 7.49%
77 | O=C(CC(C(=O)O)C1CCCO1)Nc1cccc(C(F)(F)F)c1 (stereo not drawn) | inconclusive: -41.1%
78 | CC(=O)N(C)C1=C(N2CCOCC2)C(=O)c2ccccc2C1=O | inconclusive: -77.7%
79 | CCOC(=O)c1c(C)c(C(=O)N2CCCCCC2)c(C)n1C | inactive: 13.2%
80 | Cc1cccc(OCc2nnc(SCC(=O)N3CCN(C(=O)c4ccco4)CC3)n2C)c1C | inconclusive: -66.1%
81 | Cc1ccc(N(C(=O)CCC(=O)Nc2cc(C)on2)C(C(=O)NC2CCCC2)c2cccs2)cc1 (stereo not drawn) | inconclusive: -54.2%
82 | COc1ccc(NC(=O)C23CCC(C2)C(C)(C)C3=O)cc1 (stereo not drawn) | inconclusive: -42%
83 | Cc1ccc(NC2c3ccccc3C(=O)N2CCN2CCOCC2)cc1 (stereo not drawn) | inconclusive: -51.8%
84 | O=C(CSCc1ccc(Cl)cc1)NN=C1CCCCCC1 | active: -93.2%
85 | CCCCOc1ccccc1C1C(C(N)=O)=C(C)Nc2nnnn21 (stereo not drawn) | inactive: 0.152%
86 | O=C(CN1CCN(Cc2ccccc2Cl)C1=O)NCc1ccco1 | inactive: -29.5%
87 | S=C1NCCOCCOCCOCCN1 | inconclusive: -48.5%
88 | O=C(NC(=S)N1CCCc2ccccc21)c1ccc(Br)cc1 | inconclusive: -33.9%
89 | COc1ccc(Cl)cc1NC(=S)N(CCCN1CCOCC1)Cc1cn(C)c2ccccc12 | inconclusive: -43.9%
90 | CCC(C)NC(=O)c1ccccc1NC(=O)COc1ccc(OC)cc1 (stereo not drawn) | inconclusive: -37.8%
91 | CCCCNC(=O)/C=C1\Sc2ccccc2NC1=O | inactive: 34.8%
92 | Clc1cc(Br)ccc1OCCN1CCOCC1 | inconclusive: -41%
93 | COc1cccc(/C=C/C(=O)c2ccc[nH]2)c1 | inconclusive: -40.2%
